Experiments:
[1] = test system: 5-hydroxytryptophan-induced tremors; experiment: Potentiation of 5-hydroxytryptophan-induced behavioral symptoms (tremors) in vivo; set-up: species or system Swiss-Webster CD male mice; details: Mus musculus, po, 1 h, read-out: ED50 (tremors), mice, oral, then 100 mg./kg. i.p. 5HTP one hour later
mice = experiment: Reduction of behavioral despair in vivo (modified Porsolt mouse swim test); set-up: species or system Swiss-Webster CD male mice; details: sc, 1 h, read-out: % MPE50 (dosage producing a 50% reduction in immobility relative to control)

| SMILES | ED50 [1] | ED50 (mice) |
| --- | --- | --- |
| CN[C@H]1CC[C@H](c2ccc(Cl)c(Cl)c2)c2ccccc21.Cl [Example 2, Trans-(1S)-N-methyl-4-(3,4-dichlorophenyl)-1,2,3,4-tetrahydro-1-naphthalenamine Hydrochloride] | < 10 mg/kg | – |
| CN[C@@H]1CC[C@@H](c2ccc(Cl)c(Cl)c2)c2ccccc21.Cl [Example 3, Trans-(1R)-N-methyl-4-(3,4-dichlorophenyl)-1,2,3,4-tetrahydro-1-naphthalenamine Hydrochloride] | < 10 mg/kg | 1.2 mg/kg |

Reference: patent US4556676A, “Antidepressant derivatives of trans-4-phenyl-1,2,3,4-tetrahydro-1-naphthalenamine” (priority 1980, dated 1985)
